Measurements taken from PubChem BioAssay AID540256 (National Center for Advancing Translational Sciences (NCATS), 2011).
Screen size: about 300,000 compounds; about 3,700 (1.2%) were called active. The shares of active, inactive and inconclusive entries below differ from those in the screen. The call rests on the fitted dose curve; tested in HEK293 cells. Potencies beside an inconclusive call are fits to weak or partial responses and may not hold up.

experiment: qHTS for Inhibitors of binding or entry into cells for Lassa Virus; conditions: Lassa virus pseudotype entry inhibition, cell reporter; series mostly up to 37.9 µM; further: nearly all actives have a fitted effect of over 50% in size
Potency means the concentration at half of the fitted maximal effect.

| Structure (SMILES) | Potency |
| --- | --- |
| COC(=O)c1ccc(COc2ccccc2/C=C(\C#N)C(=O)Nc2c(C)cc(C)cc2C)cc1 | inconclusive: 10 µM [inhibitor, partial curve] |
| CCOc1cccc(-c2csc(C3COc4ccccc4O3)n2)c1 (configuration not stated) | inconclusive: 1.84 µM [activator, full curve, poor fit] |
| COC(=O)c1ccccc1NC(=O)c1cc(CN2CCOCC2)on1 | inactive |
| COc1cccc(Oc2ccc(N)cn2)c1 | inactive |
| CCOc1ccc(NC(=O)CC2NCCNC2=O)cc1 (configuration not stated) | inconclusive: 0.146 µM [activator, single point] |
| Cc1ccc(S(=O)(=O)N2CCN(Cc3ccc4c(c3)OCO4)CC2)cc1 | inconclusive: 0.316 µM [inhibitor, full curve, poor fit] |
| Cc1ccc(-c2csc(-c3c[nH]c4ccccc34)n2)cc1 | inconclusive: 22.4 µM [activator, single point] |
| COc1cc(C(=O)N2CCC(c3nc4ccccc4s3)CC2)cc(OC)c1OC | inactive |
| Cc1ccc(-n2nc(C)c3c(C)c(CCC(=O)Nc4ccc(CN5CCCC5)cc4)c(C)nc32)cc1 | inconclusive: 22.4 µM [inhibitor, single point] |
| Cc1cccc(NC(=O)CCc2c(C)nn(-c3ccc(N4CCOCC4)nn3)c2C)c1 | inconclusive: 7.94 µM [activator, partial curve, poor fit] |
| O=C(NCc1ccco1)c1nn2c(C(F)(F)F)cc(-c3cccs3)nc2c1Br | inconclusive: 20 µM [inhibitor, partial curve, poor fit] |
| CC(NS(=O)(=O)c1ccccc1)C1COc2ccccc2O1 (configuration not stated) | inactive |
| O=C(NCc1cccs1)C1CCN(c2ccc(S(=O)(=O)N3CCOCC3)cc2Cl)CC1 | inconclusive: 2.24 µM [inhibitor, partial curve, poor fit] |
| COc1ccccc1/C=C/C(=O)OCC(=O)N1CCN(S(=O)(=O)c2ccc(C)cc2C)CC1 | inconclusive: 35.5 µM [inhibitor, single point] |
| CC(C)CC(COCc1ccc(Cl)cc1)N1CCN(C(=O)c2cccc(C(F)(F)F)c2)CCC1=O (configuration not stated) | inconclusive: 11.6 µM [inhibitor, partial curve] |
| CC(C)[C@H](NC(=O)c1ccccc1F)C(=O)OCC(=O)NC(=O)NC1CCCCC1 | inconclusive: 1.26 µM [inhibitor, single point] |
| CCn1c(=N)c(C(=O)NCC2CCCO2)cc2c(=O)n3cc(C)ccc3nc21 (configuration not stated) | inconclusive: 10 µM [activator, partial curve, poor fit] |
| O=c1c2ccccc2n(Cc2c(F)cccc2Cl)c(=O)n1Cc1ccccc1 | inactive |
| COc1ccc(-c2nc3ccccc3s2)cc1NC(=O)c1cccc([N+](=O)[O-])c1C | inactive |
| CCC(Oc1ccc2c(c1)C(=O)CC(C)(C)O2)C(=O)NCCN1CCCCCC1 (configuration not stated) | inactive |
| O=C(COC(=O)CC(c1ccccc1)c1ccccc1)Nc1c(F)cccc1F | inconclusive: 23.1 µM [inhibitor, single point] |

Compounds above with sulfur, in the order listed:

| Structure (SMILES) | Potency |
| --- | --- |
| CCOc1cccc(-c2csc(C3COc4ccccc4O3)n2)c1 (configuration not stated) | inconclusive: 1.84 µM [activator, full curve, poor fit] |
| Cc1ccc(S(=O)(=O)N2CCN(Cc3ccc4c(c3)OCO4)CC2)cc1 | inconclusive: 0.316 µM [inhibitor, full curve, poor fit] |
| Cc1ccc(-c2csc(-c3c[nH]c4ccccc34)n2)cc1 | inconclusive: 22.4 µM [activator, single point] |
| COc1cc(C(=O)N2CCC(c3nc4ccccc4s3)CC2)cc(OC)c1OC | inactive |
| O=C(NCc1ccco1)c1nn2c(C(F)(F)F)cc(-c3cccs3)nc2c1Br | inconclusive: 20 µM [inhibitor, partial curve, poor fit] |
| CC(NS(=O)(=O)c1ccccc1)C1COc2ccccc2O1 (configuration not stated) | inactive |
| O=C(NCc1cccs1)C1CCN(c2ccc(S(=O)(=O)N3CCOCC3)cc2Cl)CC1 | inconclusive: 2.24 µM [inhibitor, partial curve, poor fit] |
| COc1ccccc1/C=C/C(=O)OCC(=O)N1CCN(S(=O)(=O)c2ccc(C)cc2C)CC1 | inconclusive: 35.5 µM [inhibitor, single point] |
| COc1ccc(-c2nc3ccccc3s2)cc1NC(=O)c1cccc([N+](=O)[O-])c1C | inactive |

(listing goes on)

| Structure (SMILES) | Potency |
| --- | --- |
| Cc1ccc(N2CC(C(=O)Nc3ccccc3C(=O)NC3CCCCC3)CC2=O)cc1C (configuration not stated) | inconclusive: 0.58 µM [inhibitor, partial curve, poor fit] |
| Cc1ccc(C(=O)NNS(=O)(=O)c2ccc(F)cc2)cc1 | inactive |
| CCOC(=O)C1CCN(Cc2c(F)cccc2Cl)CC1 | inconclusive: 0.116 µM [activator, full curve, poor fit] |
| S=C(Nc1ccc(Oc2ccccc2)cc1)N1CCN(c2ccccn2)CC1 | inconclusive: 11.2 µM [inhibitor, partial curve, poor fit] |
| CCOC(=O)c1sc2ncnc(N3CCN(c4ccc(OC)cc4)CC3)c2c1C | inconclusive: 14.6 µM [inhibitor, partial curve] |
| O=C(NCCc1ccccn1)c1cncc(Br)c1 | inconclusive: 22.4 µM [activator, single point] |
| Cc1cc(C)cc(OC(C)C(=O)Nc2ccc(S(=O)(=O)Nc3cc(C)nc(C)n3)cc2)c1 (configuration not stated) | inconclusive: 1.26 µM [activator, single point] |
| C[C@H](CO)NC(=O)[C@H](C)[C@H]1C[C@]1(C)[C@H](NC(=O)OCc1ccccc1)c1ccccc1 | inconclusive: 0.184 µM [inhibitor, full curve, poor fit] |
| Cc1ccc(C)c(S(=O)(=O)N2CCN(C(=O)C3CCN(c4ncnc5sc(C)c(C)c45)CC3)CC2)c1 | inconclusive: 10 µM [inhibitor, single point] |
| COC(=O)C(O)(c1ccc2c(c1)CCCN2)C(F)(F)F (configuration not stated) | inactive |
| O=C(COc1ccccc1F)Nc1ccc2nc(SCC(=O)N3CCCC3)sc2c1 | inactive |
| Cc1nc(-c2ccc(S(=O)(=O)NCc3ccc(OC(C)C)cc3)cc2)co1 | inactive |
| CC(C)CCNC(=O)CNC(=S)N(Cc1ccccc1)Cc1cccnc1 | inconclusive: 20 µM [inhibitor, single point] |
| CCOC(=O)c1c(C)[nH]c(C(=O)OCC(=O)NC(C)(C)C)c1C | inconclusive: 10 µM [inhibitor, partial curve] |
| COc1cc(C(=O)NCc2cccnc2)ccc1OCC(=O)Nc1cccc(C(F)(F)F)c1 | inconclusive: 2.82 µM [inhibitor, full curve] |
| COc1ccccc1NC(=O)Nc1cc(C(C)C)ccc1C | inconclusive: 35.5 µM [inhibitor, single point] |
| CC1(C)CC(=O)c2cnc(N3CCN(c4ccccc4)CC3)nc2C1 | inactive |
| Cc1ccc2c(=O)c(C(=O)c3ccccc3)cn(CC(=O)Nc3ccccc3C)c2n1 | inconclusive: 0.562 µM [activator, full curve, poor fit] |
| C/C(=N/NC(=O)CN1CCN(Cc2ccccc2)CC1)c1ccc([N+](=O)[O-])cc1 | inconclusive: 22.4 µM [inhibitor, partial curve, poor fit] |
| CCSc1nnc(NC(=O)c2cc3c(s2)CCCC3)s1 | inconclusive: 3.66 µM [activator, full curve] |
| O=C(c1cccc(S(=O)(=O)N2CCN(c3ccccc3)CC2)c1)N1CCN(c2ccccc2O)CC1 | inactive |
